Here are results for 77 compounds from the supplement of paper PMC10663445.

Each structure is given as a SMILES string. Counter-ions that a name gives are not always drawn. The list shows a part of the results. Most values come without repeats; read them as rough.

The test concerns hsa-miR-132-3p. The experiment in a line: miR-132-3p level in NGN2-iNs after compound treatment (TMM-normalised, ComBat batch-corrected) (batch-corrected normalised expression (arbitrary units)); higher = higher miR-132-3p expression. The conditions noted are these: 10 µM; 24 h; human iPSC-derived NGN2 neurons (BR43).
Turning to `CCOC(=O)Nc1ccc(NCc2ccc(F)cc2)nc1N` [Flupirtine maleate], the “miR-132-3p level in NGN2-iNs” value is -1.05.

For `COC(=O)C1=C(C)NC(C)=C(C(=O)OC(C)C)C1c1cccc2nonc12` (configuration not stated) [Isradipine], the “miR-132-3p level in NGN2-iNs” value was -0.29. In the case of `Cn1c(Nc2ccc(C(F)(F)F)cc2)nc2cc(Oc3ccnc(-c4ncc(C(F)(F)F)[nH]4)c3)ccc21` it was -1.34. The figure for `C[C@H](CCC(=O)O)[C@H]1CC[C@H]2[C@@H]3CC[C@@H]4C[C@H](O)CC[C@]4(C)[C@H]3CC[C@]12C` [Lithocholic acid] is -0.116. The figure for `NCc1c[nH]c(=S)n1C1CCc2c(F)cc(F)cc2C1` [(R)-Nepicastat HCl] is -0.426; for `CC(=O)SCC(Cc1ccccc1)C(=O)NCC(=O)OCc1ccccc1` (configuration not stated) [Racecadotril] it is 0.355. For the compound `C[C@@]1(c2cc(-c3cncnc3)c(F)cc2F)CCSC(N)=N1`, the “miR-132-3p level in NGN2-iNs” value was 1.8.

With `CCc1cnn2c(NCc3ccc[n+]([O-])c3)cc(N3CCCC[C@H]3CCO)nc12`, the “miR-132-3p level in NGN2-iNs” value was 0.924.

Take `COc1ccccc1N1CCN(CCCNc2cc(=O)n(C)c(=O)n2C)CC1` [Urapidil HCl]: the “miR-132-3p level in NGN2-iNs” value was -0.479. In the case of `O=C(Nc1cccc(Nc2ncc(Br)c(NCCc3cnc[nH]3)n2)c1)N1CCCC1` it was 0.548; in that of `O=C(/C=C/C=C/c1ccc2c(c1)OCO2)N1CCCCC1` [Piperine], -0.74; in that of `O=C(O)C(S)=Cc1c[nH]c2ccc(F)cc12`, 0.192. In the case of `CCC(=O)OCC(=O)[C@@]1(OC(=O)CC)[C@@H](C)C[C@H]2[C@@H]3CCC4=CC(=O)C=C[C@]4(C)[C@@]3(Cl)[C@@H](O)C[C@@]21C` [Beclomethasone dipropionate] it was 0.125. In the case of `C=CCn1c(=O)c2cnc(Nc3ccc(N4CCN(C)CC4)cc3)nc2n1-c1cccc(C(C)(C)O)n1` [Adavosertib (MK-1775)] it was 0.204. With `c1cn2cc(-c3ccc4cn[nH]c4c3)nc(Nc3ccc(N4CCOCC4)cc3)c2n1` [Entospletinib (GS-9973)], the “miR-132-3p level in NGN2-iNs” value is 1.06. The figure for `CC(C)(C(=O)NCC(F)(F)C(F)(F)F)C(=O)N[C@@H]1C(=O)Nc2ccccc2-c2ccccc21` is 1.17; for `O=C1OC(CN2CCOCC2)CN1/N=C/c1ccc([N+](=O)[O-])o1` (configuration not stated) [Furaltadone HCl] it is -0.235; for `Cc1ccc(-c2c(-c3nn(C)c4ncnc(N5CC[C@H](N6CCCCC6)C5)c34)cnn2C)cc1` it is -0.283. `O=C1c2c(O)cc(O)cc2O[C@H](c2cc(O)c(O)c(O)c2)[C@H]1O` [Dihydromyricetin]: the “miR-132-3p level in NGN2-iNs” value was -0.487.

Take `C[C@H]1[C@H](OC(=O)CCC(=O)O)O[C@@H]2O[C@@]3(C)CC[C@H]4[C@H](C)CC[C@@H]1[C@@]24OO3` [Artesunate]: the “miR-132-3p level in NGN2-iNs” value was -0.536. The figure for `CC(NC(=O)Cc1cc(F)cc(F)c1)C(=O)NC1C(=O)N(C)c2ccccc2-c2ccccc21` (configuration not stated) is -0.914; for `CCOc1cc(N)c(Cl)cc1C(=O)NCC1CN(Cc2ccc(F)cc2)CCO1` (configuration not stated) [Mosapride Citrate] it is 0.219. In the case of `Cc1cccc(Nc2ccccc2C(=O)O)c1C` [Mefenamic Acid] it was -0.732.

Regarding `CCC(C)n1ncn(-c2ccc(N3CCN(c4ccc(OCC5COC(Cn6cncn6)(c6ccc(Cl)cc6Cl)O5)cc4)CC3)cc2)c1=O` (configuration not stated) [Itraconazole], the “miR-132-3p level in NGN2-iNs” value is -0.837. In the case of `Cc1cc(-c2ccc(CC(=O)Nc3ccc(-c4cccnc4)cc3)cc2)ccn1` it was -0.429; in that of `COCCOc1ccc2c(c1)ncn2-c1ccc2cccc(N3CCC(N)CC3)c2n1`, 0.664. In the case of `OC[C@H]1O[C@@H](c2ccc(Cl)c(Cc3ccc(O[C@H]4CCOC4)cc3)c2)[C@H](O)[C@@H](O)[C@@H]1O` it was 2. The figure for `CC1(C)CNc2cc(NC(=O)c3cccnc3NCc3ccncc3)ccc21` [Motesanib Diphosphate (AMG-706)] is 0.361; for `Oc1cc(O)c(Cl)cn1` [Gimeracil] it is 1.25. Consider `COC(=O)C1=C(C)NC(C)=C(C(=O)OCC(C)C)C1c1ccccc1[N+](=O)[O-]` (configuration not stated) [Nisoldipine], for which the “miR-132-3p level in NGN2-iNs” value was determined as 0.229. In the case of `COc1c2ccoc2cc2oc(=O)ccc12` [Bergapten] it was -0.131; in that of `Cc1ccccc1C(OCCN(C)C)c1ccccc1` (configuration not stated) [Orphenadrine Citrate], 0.525; in that of `CNCc1cc(-c2ccccc2F)n(S(=O)(=O)c2cccnc2)c1` [Vonoprazan Fumarate (TAK-438)], -1.52. In the case of `CN1CCC(=C2c3ccccc3CCc3sccc32)CC1` [Pizotifen Malate] it was -0.416; in that of `COc1ncc(-c2ccc3nccc(-c4ccnnc4)c3c2)cc1NS(=O)(=O)c1ccc(F)cc1F`, 0.963. For `CCCCNc1ccc(C(=O)OCCN(C)C)cc1` [Tetracaine HCl], the “miR-132-3p level in NGN2-iNs” value is 0.46. Turning to `COc1ccc2cc(-c3nc(-c4ccc([S+](C)[O-])cc4)[nH]c3-c3ccncc3)ccc2c1` (configuration not stated) [Tie2 kinase inhibitor], the “miR-132-3p level in NGN2-iNs” value was -1.23. In the case of `CCCCCOC(=O)Nc1nc(=O)n([C@@H]2O[C@H](C)[C@@H](O)[C@H]2O)cc1F` [Capecitabine] it was -0.137; in that of `Nc1ncnc2c1C(=O)N(c1ccc([C@H]3CC[C@H](CC(=O)O)CC3)cc1)CCO2`, -0.113.

In the case of `CCN1C(=CC(C)=O)Sc2ccc(OC)cc21`, the “miR-132-3p level in NGN2-iNs” value was -1.26. Turning to `O=C1[C@H](CC[C@H](O)c2ccc(F)cc2)[C@@H](c2ccc(O)cc2)N1c1ccc(F)cc1` [Ezetimibe], the “miR-132-3p level in NGN2-iNs” value turned out to be 1.02. In the case of `Cc1cc(-c2ncc(CC(=O)Nc3ccc(-c4cnccn4)cn3)cc2C)ccn1`, the “miR-132-3p level in NGN2-iNs” value stood at 0.408. In the case of `Cc1cnc(C(=O)NCCc2ccc(S(=O)(=O)NC(=O)NC3CCCCC3)cc2)cn1` [Glipizide] it was -0.123; in that of `CCN1CCN(Cc2ccc(Nc3ncc(F)c(-c4cc(F)c5nc(C)n(C(C)C)c5c4)n3)nc2)CC1`, -1.39. The figure for `COCCc1ccc(OCC(O)CNC(C)C)cc1` (configuration not stated) [Metoprolol Tartrate] is -0.374; for `COc1ccc(CN2CCN(C(c3ccc(F)cc3)c3ccc(F)cc3)CC2)c(OC)c1OC` [Lomerizine 2HCl] it is -0.0461. In the case of `CC(C)Cc1ccc(C(C)C(=O)O)cc1` (configuration not stated) [Ibuprofen] it was 0.329; in that of `O=c1c(O)c(-c2ccc(O)c(O)c2)oc2cc(O)cc(O)c12` [Quercetin Dihydrate], 2.25. Consider `O=c1c(O)c(-c2ccc(O)c(O)c2)oc2cc(O)cc(O)c12` [Quercetin], for which the “miR-132-3p level in NGN2-iNs” value came out at 0.176. As to `Cc1cnc(C(=O)O)c[n+]1[O-]` [Acipimox], the “miR-132-3p level in NGN2-iNs” value was -0.98.

Take `O=C(c1cncc(Br)c1)N1CCC(N2CCCC2)CC1`: the “miR-132-3p level in NGN2-iNs” value was -0.364. With `O=C(O)c1cc(I)ccc1NC(=O)[C@H](Cc1ccccc1)NCc1ccccc1`, the “miR-132-3p level in NGN2-iNs” value is -0.388. In the case of `CC[N+](CC)(CC)CCOc1cccc(OCC[N+](CC)(CC)CC)c1OCC[N+](CC)(CC)CC` [Gallamine Triethiodide] it was 0.637. As for `O=C(O)c1ccccc1` [Benzoic Acid], the “miR-132-3p level in NGN2-iNs” value is -0.135. In the case of `CC[C@@H]([C@H](C)O)n1ncn(-c2ccc(N3CCN(c4ccc(OC[C@@H]5CO[C@@](Cn6cncn6)(c6ccc(F)cc6F)C5)cc4)CC3)cc2)c1=O` [Posaconazole] it was 0.175; in that of `CCCCC[C@H](O)/C=C/[C@H]1[C@H](O)CC(=O)[C@@H]1CCCCCCC(=O)O` [Alprostadil], 0.351. In the case of `CC(C(=O)O)c1ccc(C(=O)c2cccs2)cc1` (configuration not stated) [Suprofen] it was 0.504; in that of `CN1CCN(c2nc(C3=C(c4c[nH]c5ccccc45)C(=O)NC3=O)c3ccccc3n2)CC1` [Sotrastaurin], 0.83. With `CCOc1ccc(NC(C)=O)cc1` [Phenacetin], the “miR-132-3p level in NGN2-iNs” value is -0.0522. In the case of `O=C(c1ccc(OCCCc2c[nH]cn2)cc1)C1CC1` [Ciproxifan Maleate] it was 0.483; in that of `CC(C)[C@H](N)C(=O)OCC(CO)OCn1cnc2c(=O)[nH]c(N)nc21` (some centres not stated) [Valganciclovir HCl], -0.479. The figure for `O=c1[nH]c(=O)n([C@H]2C[C@H](O)[C@@H](CO)O2)cc1F` [Floxuridine] is 0.0667; for `COc1cc(/C=C/C(=O)O)ccc1O` [Ferulic Acid] it is 1.53; for `C[N+]1(C)CCC(=C(c2ccccc2)c2ccccc2)CC1` [Diphemanil Methylsulfate] it is 1.21. In the case of `NS(=O)(=O)c1cc2c(cc1Cl)NCNS2(=O)=O` [Hydrochlorothiazide], the “miR-132-3p level in NGN2-iNs” value turned out to be 0.353.

As to `O=C(NC1CCOCC1)c1ccc(-c2cc(-c3c[nH]nc3-c3ccccn3)ccn2)cc1`, the “miR-132-3p level in NGN2-iNs” value is -0.603. Take `CN(C)CCc1c[nH]c2ccc(C[C@H]3COC(=O)N3)cc12` [Zolmitriptan]: the “miR-132-3p level in NGN2-iNs” value was determined as 0.185. In the case of `O=C1c2cccc(O)c2C(=O)c2c(O)cc(CO)cc21` [Aloe-emodin] it was 0.434; in that of `CC(C)(F)C[C@H](N[C@@H](c1ccc(-c2ccc(S(C)(=O)=O)cc2)cc1)C(F)(F)F)C(=O)NC1(C#N)CC1` [Odanacatib (MK-0822)], 0.3; in that of `COc1cc(C)c(/C=C/C(C)=C/C=C/C(C)=C/C(=O)O)c(C)c1C` [Acitretin], -2.85. The figure for `C[C@@H]1C(=O)O[C@H]2C[C@@]34[C@H]5C[C@@H](C(C)(C)C)[C@]36[C@@H](OC(=O)[C@@H]6O)O[C@@]4(C(=O)O5)[C@]21O` [Ginkgolide A] is 0.63; for `NC(=O)c1ncn([C@@H]2O[C@H](CO)[C@@H](O)[C@H]2O)c1N` [AICAR (Acadesine)] it is 0.718; for `CC(=O)OCC(=O)[C@@]1(O)CC[C@H]2[C@@H]3CCC4=CC(=O)CC[C@]4(C)[C@H]3C(=O)C[C@@]21C` [Cortisone acetate] it is -0.847. In the case of `O=C1c2c(O)cc(O)cc2OC(c2ccc(O)c(O)c2)C1O` (configuration not stated) [Taxifolin (Dihydroquercetin)] it was 0.677.

Take `FC(F)(F)c1ccc(/C=C/c2nc(COc3ccc(CCCCn4ccnn4)cc3)co2)cc1` [Mubritinib (TAK 165)]: the “miR-132-3p level in NGN2-iNs” value is 2.33. The figure for `CNC(=O)c1nn(C)c2c1C(C)(C)Cc1cnc(Nc3ccc(N4CCN(C)CC4)cc3)nc1-2` is -1.91; for `CC(C)(O)CC[C@@H](O)[C@](C)(O)[C@H]1CC[C@@]2(O)C3=CC(=O)[C@@H]4C[C@@H](O)[C@@H](O)C[C@]4(C)[C@H]3CC[C@]12C` [20-Hydroxyecdysone] it is 1.16.
